Test results: patent US20240277845A1
These are yes or no findings as the source states them, for the method shown. Some binding calls cover weakened binding; strength is not graded here. For some of these results: Sequences can lack the tags named with a protein.

Protein sequences, listed by entry. Tags and fused reporters are not part of them. Lines headed by an entry give the natural chain unless they say otherwise; changes in a name come on top. Chains listed by the source or under a name are the forms on record and can include a tag or linker. Residues count along the entry.
UniProt Q29983, residues 24-308: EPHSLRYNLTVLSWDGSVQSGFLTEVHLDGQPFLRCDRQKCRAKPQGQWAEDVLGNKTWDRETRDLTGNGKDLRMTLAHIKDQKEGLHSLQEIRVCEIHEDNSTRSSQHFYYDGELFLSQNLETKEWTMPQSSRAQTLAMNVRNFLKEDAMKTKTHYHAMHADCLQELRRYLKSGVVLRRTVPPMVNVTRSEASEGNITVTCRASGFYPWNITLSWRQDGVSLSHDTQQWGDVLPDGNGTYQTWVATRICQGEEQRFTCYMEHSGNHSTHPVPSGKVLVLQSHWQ
Fc-wtNKG2D (P26718, form named): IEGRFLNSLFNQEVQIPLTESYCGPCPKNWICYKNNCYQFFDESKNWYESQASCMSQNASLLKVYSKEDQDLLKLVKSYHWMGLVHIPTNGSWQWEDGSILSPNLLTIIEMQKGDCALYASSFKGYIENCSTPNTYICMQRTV

What was measured:
Assay in all cases: ELISA; ligand-Fc coated, biotinylated Fc-NKG2D titrated, streptavidin-HRP; x axis printed as 'nM ligand-Fc'
MICA-Fc = MICA-Fc (UniProt Q29983)
MICB-Fc = molecular target: T1, MICB-Fc (UniProt Q29980)
T1 sequence (looked up): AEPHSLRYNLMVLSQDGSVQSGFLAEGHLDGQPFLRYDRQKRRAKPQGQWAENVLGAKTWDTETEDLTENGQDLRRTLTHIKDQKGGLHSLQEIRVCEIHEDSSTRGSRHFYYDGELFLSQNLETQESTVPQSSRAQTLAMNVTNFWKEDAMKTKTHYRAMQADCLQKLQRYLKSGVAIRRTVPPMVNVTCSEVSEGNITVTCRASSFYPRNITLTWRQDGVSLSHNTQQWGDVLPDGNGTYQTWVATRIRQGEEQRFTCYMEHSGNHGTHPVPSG

ULBP3-Fc = molecular target: T2, ULBP3-Fc (UniProt Q9BZM4)
T2 sequence (looked up): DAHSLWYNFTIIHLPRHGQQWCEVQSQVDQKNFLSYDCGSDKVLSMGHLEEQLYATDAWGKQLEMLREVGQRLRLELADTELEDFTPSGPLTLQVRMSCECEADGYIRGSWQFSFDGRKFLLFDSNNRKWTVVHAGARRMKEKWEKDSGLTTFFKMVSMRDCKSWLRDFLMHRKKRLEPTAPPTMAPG

ULBP1-Fc = molecular target: T3, ULBP1-Fc (UniProt Q9BZM6)
T3 sequence (looked up): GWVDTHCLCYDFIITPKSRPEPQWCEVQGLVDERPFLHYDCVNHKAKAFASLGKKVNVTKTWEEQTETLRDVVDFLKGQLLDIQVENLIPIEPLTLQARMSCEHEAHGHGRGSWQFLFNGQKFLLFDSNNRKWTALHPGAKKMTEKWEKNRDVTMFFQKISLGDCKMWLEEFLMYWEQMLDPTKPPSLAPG

binding (MICA-Fc): binds
binding (MICB-Fc): binds
binding (ULBP3-Fc): binds
binding (ULBP1-Fc): binds
Substance: Fc-wtNKG2D (from UniProt P26718 78-216) (Fc fusion)
